Experimental data taken from patent publication US6762193B1, “Method of treating hair loss” (priority 2000, dated 2004).
At least one structure is not confirmed: it was looked up by name or label, or the drawing left a doubt.

Test system: acne and other inflammatory skin diseases
Experiment: Singulair tested in acne and other inflammatory skin diseases
Conditions: in vivo

Structure (SMILES): CC(C)(O)c1ccccc1CC[C@@H](SCC1(CC(=O)O)CC1)c1cccc(/C=C/c2ccc3ccc(Cl)cc3n2)c1 [Singulair, Montelukast]
- effectiveness in treating acne: effective
